According to PMC11091526 (International Journal for Parasitology: Drugs and Drug …, 2024):

What was measured:
[1] = test system: N. fowleri ATCC® 30,808™ trophozoites; test: In vitro activity against trophozoites, alamarBlue, 48 h; assay type: cell-based, Naegleria fowleri
[2] = test system: N. fowleri ATCC® 30,808™ cysts; test: microbe, parasite or virus in culture; assay type: cell-based; details: Naegleria fowleri, ATCC30, read-out: N. fowleri ATCC 30,808 IC50, cyst stage
[3] = test system: N. fowleri ATCC® 30,215™ trophozoites; test: In vitro activity against trophozoites, alamarBlue, 48 h; assay type: cell-based; details: Naegleria fowleri, ATCC30, 48 h, read-out: N. fowleri ATCC 30,215 IC50
[4] = test system: N. fowleri (ATCC® 30,808™) trophozoites; assay type: cell-based, Naegleria fowleri

In the case of CN1CCC[C@@H]1CCO[C@](C)(c1ccccc1)c1ccc(Cl)cc1 [CLEMASTINE, clemastine], the “S.I. ATCC 30,808 (selectivity index CC50/IC50)” value ([1]; CC50 J774A.1 / IC50 ATCC 30,808 trophozoites) is reported as 7.64, the IC50 ([1]; Naegleria fowleri, ATCC30, 48 h, read-out: N. fowleri ATCC 30,808 IC50, trophozoite stage) is reported as 7.68 ± 0.32 µM and the IC90 ([1]; Naegleria fowleri, ATCC30, read-out: N. fowleri ATCC 30,808 IC90) is reported as 18.6 ± 5.64 µM. For the same molecule, the IC50 [2] was 8.2 ± 3.37 µM, the IC50 [3] was 5.69 ± 1.16 µM and the “Inhibition of ATP synthesis in comparison to the negative control” value [4] was “over 96%”.
